Publication PMC4924659
These are yes or no findings as the source states them, for the method shown. In cells and extracts the contact can be indirect. Some binding calls cover weakened binding; strength is not graded here.

Chains of the proteins cited; added tags and fusions are not shown.
UniProt Q96EB6: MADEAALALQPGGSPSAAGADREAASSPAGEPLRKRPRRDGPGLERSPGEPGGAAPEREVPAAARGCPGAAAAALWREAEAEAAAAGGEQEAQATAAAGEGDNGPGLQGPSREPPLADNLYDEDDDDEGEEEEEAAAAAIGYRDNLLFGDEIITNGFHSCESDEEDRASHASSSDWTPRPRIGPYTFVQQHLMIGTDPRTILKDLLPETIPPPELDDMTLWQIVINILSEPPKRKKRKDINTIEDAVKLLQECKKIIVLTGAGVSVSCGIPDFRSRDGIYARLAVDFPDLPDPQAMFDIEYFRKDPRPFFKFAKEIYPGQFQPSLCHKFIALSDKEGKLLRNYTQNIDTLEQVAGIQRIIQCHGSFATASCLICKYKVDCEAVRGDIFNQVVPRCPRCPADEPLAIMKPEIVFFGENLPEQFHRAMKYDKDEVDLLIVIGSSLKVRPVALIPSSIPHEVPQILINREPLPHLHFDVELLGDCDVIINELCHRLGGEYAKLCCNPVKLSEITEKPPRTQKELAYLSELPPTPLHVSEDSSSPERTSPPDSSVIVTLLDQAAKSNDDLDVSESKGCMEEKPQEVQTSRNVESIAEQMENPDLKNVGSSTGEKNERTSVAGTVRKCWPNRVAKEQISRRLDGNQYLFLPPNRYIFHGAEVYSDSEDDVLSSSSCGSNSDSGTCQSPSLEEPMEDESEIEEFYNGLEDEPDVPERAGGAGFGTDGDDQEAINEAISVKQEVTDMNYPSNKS
UniProt P12956: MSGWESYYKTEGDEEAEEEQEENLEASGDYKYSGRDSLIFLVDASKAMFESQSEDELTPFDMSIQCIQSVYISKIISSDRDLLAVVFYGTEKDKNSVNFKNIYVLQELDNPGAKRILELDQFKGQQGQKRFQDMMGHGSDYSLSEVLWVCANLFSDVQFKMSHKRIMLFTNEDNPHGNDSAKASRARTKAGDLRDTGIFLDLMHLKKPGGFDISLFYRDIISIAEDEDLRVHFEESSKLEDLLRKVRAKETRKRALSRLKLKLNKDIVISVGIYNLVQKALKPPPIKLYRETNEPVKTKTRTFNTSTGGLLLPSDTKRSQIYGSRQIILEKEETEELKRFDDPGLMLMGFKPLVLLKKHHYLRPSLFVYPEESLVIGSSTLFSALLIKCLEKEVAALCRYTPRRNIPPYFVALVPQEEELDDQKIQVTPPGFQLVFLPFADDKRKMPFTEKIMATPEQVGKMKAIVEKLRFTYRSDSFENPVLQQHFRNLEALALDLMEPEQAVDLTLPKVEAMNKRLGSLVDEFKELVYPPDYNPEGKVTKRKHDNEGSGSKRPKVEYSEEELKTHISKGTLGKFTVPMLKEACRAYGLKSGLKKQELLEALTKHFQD

Molecular target: SIRT1 (human (endogenous in K562)) (UniProt Q96EB6)
Assay: co-IP; lysate of K562 cells after etoposide treatment (20 uM, four hours); endogenous proteins precipitated with anti-Ku70 or anti-SIRT1 agarose beads (control IgG alongside), immunoblot for the other protein

Ku70 (from UniProt P12956 1-609)
binding: binds
